Assay results reported in paper PMC10692228, “A simple method for developing lysine targeted covalent protein reagents” (Nature Communications, 2023).
Results are given in words; binding and its absence hold for the method and conditions named.

Assays:
Experiment in all cases: SEC-MALS; both purified
[1] = target: colicin E9 immunity protein (Im9), wild type (UniProt P13479)
[2] = target: methacrylate-modified Im9 mutant (C23A/E41C) (UniProt P13479)
[3] = target: Im9 mutant (C23A/E41C), unmodified (UniProt P13479)

colicin E9 immunity protein (Im9), wild type (from UniProt P13479 1-86)
binding [1]: no binding (tested: 200 µM)

methacrylate-modified Im9 mutant (C23A/E41C) (from UniProt P13479 1-86)
binding [2]: no binding (tested: 200 µM)

Im9 mutant (C23A/E41C), unmodified (from UniProt P13479 1-86)
binding [3]: no binding (tested: 200 µM)
